No constants are given. Whether binding was seen depends on the method and setting. Some binding calls cover weakened binding; strength is not graded here.
Biological target: human plasma derived FXIa (human) (UniProt P03951)
Experiment: direct coating ELISA, IgG

By UniProt entry, the sequences of proteins in these tests, tags left out. Where a name states a change or a piece, a line headed by the entry shows the natural chain unless it says otherwise.
UniProt P03951: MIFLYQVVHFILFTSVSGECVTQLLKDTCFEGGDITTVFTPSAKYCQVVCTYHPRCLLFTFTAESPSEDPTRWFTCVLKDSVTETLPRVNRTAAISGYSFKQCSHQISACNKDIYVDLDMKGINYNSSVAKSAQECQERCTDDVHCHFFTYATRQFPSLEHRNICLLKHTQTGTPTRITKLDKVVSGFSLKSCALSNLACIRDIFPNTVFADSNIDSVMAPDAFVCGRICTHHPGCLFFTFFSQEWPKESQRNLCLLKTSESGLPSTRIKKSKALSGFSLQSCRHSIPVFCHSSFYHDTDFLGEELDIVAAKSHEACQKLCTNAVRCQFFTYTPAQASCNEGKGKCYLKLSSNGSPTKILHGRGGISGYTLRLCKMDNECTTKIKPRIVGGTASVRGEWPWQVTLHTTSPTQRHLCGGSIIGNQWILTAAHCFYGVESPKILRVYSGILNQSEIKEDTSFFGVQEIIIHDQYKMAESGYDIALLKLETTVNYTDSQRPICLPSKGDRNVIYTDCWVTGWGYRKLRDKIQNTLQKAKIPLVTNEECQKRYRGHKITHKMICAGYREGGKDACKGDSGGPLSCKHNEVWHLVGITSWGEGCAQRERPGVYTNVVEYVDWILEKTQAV

| Binder | binding |
| --- | --- |
| NOV1090 (IgG) (antibody, V domains shown) VH: QVQLLESGGGLVQPGGSLRLSCAASGFTFSTAAMSWVRQAPGKGLEWVSGISGSGSSTYYADSVKGRFTISRDNSKNTLYLQMNSLRAEDTAVYYCARELSYLYSGYYFDYWGQGTLVTVSS VL: DIVLTQPPSVSGAPGQRVTISCSGSSSNIGSNDVSWYQQLPGTAPKLLIYKNYNRPSGVPDRFSGSKSGTSASLAITGLQAEDEADYYCSAWDQRQFDVVFGGGTKLTVLG | binds |
| AM1 (IgG) (antibody, V domains shown) VH: QVQLLESGGGLVQPGGSLRLSCAASGFTFSTAAMSWVRQAPGKGLEWVSTIDSWGDDTDYADSVKGRFTISRDNSKNTLYLQMNSLRAEDTAVYYCARELSYLYSGYYFDYWGQGTLVTVSS VL: DIVLTQPPSVSGAPGQRVTISCSGSSSNIGSNDVSWYQQLPGTAPKLLIYKNYNRPSGVPDRFSGSKSGTSASLAITGLQAEDEADYYCSAWDQRQFDVVFGGGTKLTVLG | binds |
| AM2 (IgG) (antibody, V domains shown) VH: QVQLLESGGGLVQPGGSLRLSCAASGFTFSTAAMSWVRQAPGKGLEWVSSIEYYDTDTHYADSVKGRFTISRDNSKNTLYLQMNSLRAEDTAVYYCARELSYLYSGYYFDYWGQGTLVTVSS VL: DIVLTQPPSVSGAPGQRVTISCSGSSSNIGSNDVSWYQQLPGTAPKLLIYKNYNRPSGVPDRFSGSKSGTSASLAITGLQAEDEADYYCSAWDQRQFDVVFGGGTKLTVLG | binds |
